These are yes or no findings as the source states them, for the method shown. In cells and extracts the contact can be indirect. Some entries that bind do so weakly or less than the wild type.
T1: Caveolin-3 (rat (endogenous in rat bladder)) (UniProt P51638)
T1 sequence: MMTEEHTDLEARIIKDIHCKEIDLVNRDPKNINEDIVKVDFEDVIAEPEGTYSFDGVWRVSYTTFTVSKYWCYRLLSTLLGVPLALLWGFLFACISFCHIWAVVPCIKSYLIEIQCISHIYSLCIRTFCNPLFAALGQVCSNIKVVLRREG

B1: hyperpolarization-activated cyclic nucleotide-gated channel 3 (protein, UniProt Q9JKA8 1-780)
chain: MEEEARPAVGDGEAATPARETPPAAPAQARAASGGVPESAPEPKRRQLGTLLQPTVNKFSLRVFGSHKAVEIEQERVKSAGAWIIHPYSDFRFYWDLIMLLLMVGNLIVLPVGITFFKEENSPPWIVFNVLSDTFFLLDLVLNFRTGIVVEEGAEILLAPRAIRTRYLRTWFLVDLISSIPVDYIFLVVELEPRLDAEVYKTARALRIVRFTKILSLLRLLRLSRLIRYMHQWEEIFHMTYDLASAVVRIFNLIGMMLLLCHWDGCLQFLVPMLQDFPSDCWVSMNRMVNHSWGRQYSHALFKAMSHMLCIGYGQQAPVGMPDVWLTMLSMIVGATCYAMFIGHATALIQSLDSSRRQYQEKYKQVEQYMSFHKLPADTRQRIHEYYEHRYQGKMFDEESILGELSEPLREEIINFTCRGLVAHMPLFAHADPSFVTAVLTKLRFEVFQPGDLVVREGSVGRKMYFIQHGLLSVLARGARDTRLTDGSYFGEICLLTRGRRTASVRADTYCRLYSLSVDHFNAVLEEFPMMRRAFETVAMDRLRRIGKKNSILQRKRSEPSPGSSSGGVMEQHLVQHDRDMARGIRGLAPGTGARLSGKPVLWEPLVHAPLQAAAVTSNVAIALTHQRGPLPLSPDSPATLLARSARRSAGSPASPLVPVRAGPLLARGPWASTSRLPAPPARTLHASLSRTGRSQVSLLGPPPGGGGRRLGPRGRPLSASQPSLPQRATGDGSPRRKGSGSERLPPSGLLAKPPGTVQPSRSSVPEPVTPRGPQISANM
B2: hyperpolarization-activated cyclic nucleotide-gated channel 1 (protein, UniProt Q9JKB0 1-902)
chain: MEGGGKPNSASNSRDDGNSVYPSKAPATGPAAADKRLGTPPGGGAAGKEHGNSVCFKVDGGGGEEPAGSFEDAEGPRRQYGFMQRQFTSMLQPGVNKFSLRMFGSQKAVEKEQERVKTAGFWIIHPYSDFRFYWDLIMLIMMVGNLVIIPVGITFFTEQTTTPWIIFNVASDTVFLLDLIMNFRTGTVNEDSSEIILDPKVIKMNYLKSWFVVDFISSIPVDYIFLIVEKGMDSEVYKTARALRIVRFTKILSLLRLLRLSRLIRYIHQWEEIFHMTYDLASAVVRIFNLIGMMLLLCHWDGCLQFLVPLLQDFPPDCWVSLNEMVNDSWGKQYSYALFKAMSHMLCIGYGAQAPVSMSDLWITMLSMIVGATCYAMFVGHATALIQSLDSSRRQYQEKYKQVEQYMSFHKLPADMRQKIHDYYEHRYQGKIFDEENILSELNDPLREEIVNFNCRKLVATMPLFANADPNFVTAMLSKLRFEVFQPGDYIIREGAVGKKMYFIQHGVAGVITKSSKEMKLTDGSYFGEICLLTKGRRTASVRADTYCRLYSLSVDNFNEVLEEYPMMRRAFETVAIDRLDRIGKKNSILLQKFQKDLNTGVFNNQENEILKQIVKHDREMVQAIPPINYPQMTALNCTSSTTTPTSRMRTQSPPVYTATSLSHSNLHSPSPSTQTPQPSAILSPCSYTTAVCSPPIQSPLATRTFHYASPTASQLSLMQQPQPQLQQSQVQQTQPQPQPQPQQPQQQQQQQQQQQQQQQQQQQQQQPQTPGSSTPKNEVHKSTQALHNTNLTREVRPLSASQPSLPHEVSTMISRPHPTVGESLASIPQPMATVHSTGLQAGSRSTVPQRVTLFRQMSSGAIPPNRGVPPAPPPPAAVQRESPSVLNKDPDAEKPRFASNL
B3: hyperpolarization-activated cyclic nucleotide-gated channel 4 (protein, UniProt Q9JKA7 1-1198)
chain: MDKLPPSMRKRLYSLPQQVGAKAWIMDEEEDGEEEGAGGLQDPSRRSIRLRPLPSPSPSVAAGCSESRGAALGAADSEGPGRSAGKSSTNGDCRRFRGSLASLGSRGGGSGGAGGGSSLGHLHDSAEERRLIAAEGDASPGEDRTPPGLATEPERPGAAAQPAASPPPQQPPQPASASCEQPSADTAIKVEGGAAASDQILPEAEVRLGQSGFMQRQFGAMLQPGVNKFSLRMFGSQKAVEREQERVKSAGFWIIHPYSDFRFYWDLTMLLLMVGNLIIIPVGITFFKDENTTPWIVFNVVSDTFFLIDLVLNFRTGIVVEDNTEIILDPQRIKMKYLKSWFVVDFISSIPVDYIFLIVETRIDSEVYKTARALRIVRFTKILSLLRLLRLSRLIRYIHQWEEIFHMTYDLASAVVRIVNLIGMMLLLCHWDGCLQFLVPMLQDFPHDCWVSINGMVNNSWGKQYSYALFKAMSHMLCIGYGRQAPVGMSDVWLTMLSMIVGATCYAMFIGHATALIQSLDSSRRQYQEKYKQVEQYMSFHKLPPDTRQRIHDYYEHRYQGKMFDEESILGELSEPLREEIINFNCRKLVASMPLFANADPNFVTSMLTKLRFEVFQPGDYIIREGTIGKKMYFIQHGVVSVLTKGNKETKLADGSYFGEICLLTRGRRTASVRADTYCRLYSLSVDNFNEVLEEYPMMRRAFETVALDRLDRIGKKNSILLHKVQHDLNSGVFNYQENEIIQQIVRHDREMAHCAHRVQAAASATPTPTPVIWTPLIQAPLQAAAATTSVAIALTHHPRLPAAIFRPPPGPGLGNLGAGQTPRHPRRLQSLIPSALGSASPASSPSQVDTPSSSSFHIQQLAGFSAPPGLSPLLPSSSSSPPPGACSSPPAPTPSTSTAATTTGFGHFHKALGGSLSSSDSPLLTPLQPGARSPQAAQPPPPLPGARGGLGLLEHFLPPPPSSRSPSSSPGQLGQPPGELSPGLAAGPPSTPETPPRPERPSFMAGASGGASPVAFTPRGGLSPPGHSPGPPRTFPSAPPRASGSHGSLLLPPASSPPPPQVPQRRGTPPLTPGRLTQDLKLISASQPALPQDGAQTLRRASPHSSGESMAAFSLYPRAGGGSGSSGGLGPPGRPYGAIPGQHVTLPRKTSSGSLPPPLSLFGARAASSGGPPLTAAPQREPGARSEPVRSKLPSNL
B4: hyperpolarization-activated cyclic nucleotide-gated channel 2 (protein, UniProt Q9JKA9 1-863)
chain: MDARGGGGRPGDSPGATPAPGPPPPPPPPAPPQPQPPPAPPPNPTTPSHPESADEPGPRSRLCSRDSSCTPGAAKGGANGECGRGEPQCSPEGPARGPKVSFSCRGAASGPAAAEEAGSEEAGPAGEPRGSQASFLQRQFGALLQPGVNKFSLRMFGSQKAVEREQERVKSAGAWIIHPYSDFRFYWDFTMLLFMVGNLIIIPVGITFFKDETTAPWIVFNVVSDTFFLMDLVLNFRTGIVIEDNTEIILDPEKIKKKYLRTWFVVDFVSSIPVDYIFLIVEKGIDSEVYKTARALRIVRFTKILSLLRLLRLSRLIRYIHQWEEIFHMTYDLASAVMRICNLISMMLLLCHWDGCLQFLVPMLQDFPSDCWVSINNMVNHSWSELYSFALFKAMSHMLCIGYGRQAPESMTDIWLTMLSMIVGATCYAMFIGHATALIQSLDSSRRQYQEKYKQVEQYMSFHKLPADFRQKIHDYYEHRYQGKMFDEDSILGELNGPLREEIVNFNCRKLVASMPLFANADPNFVTAMLTKLKFEVFQPGDYIIREGTIGKKMYFIQHGVVSVLTKGNKEMKLSDGSYFGEICLLTRGRRTASVRADTYCRLYSLSVDNFNEVLEEYPMMRRAFETVAIDRLDRIGKKNSILLHKVQHDLSSGVFNNQENAIIQEIVKYDREMVQQAELGQRVGLFPPPPPPQVTSAIATLQQAVAMSFCPQVARPLVGPLALGSPRLVRRAPPGPLPPAASPGPPAASPPAAPSSPRAPRTSPYGVPGSPATRVGPALPARRLSRASRPLSASQPSLPHGAPAPSPAASARPASSSTPRLGPAPTTRTAAPSPDRRDSASPGAASGLDPLDSARSRLSSNL

molecular target: T1, Caveolin-3 (rat (endogenous in rat bladder)); test: co-IP; anti-Cav-3 antibody immobilised on magnetic beads, incubated with normal rat bladder lysate for 1 hour; Western blot with anti-HCN1-4 antibodies; nonimmune IgG as negative control

binding	Binder
binds	B1
binds	B2
binds	B3
binds	B4

Source: paper PMC4848475
